{"source": "paper PMC3208124", "about": "(Journal of medicinal chemistry, 2011)", "origin": "cited, not measured here", "details": "human, in vivo; cited from earlier work"}
{"smiles": "CCCNCC(O)COc1ccccc1C(=O)CCc1ccccc1", "note": "(stereo not shown) [propafenone]", "values": [{"measurement": "rapidly and extensively metabolized in", "result": "2 to 10", "unit": "h"}]}
